# Results taken from the supplement of paper PMC8728848.
# Some of the results follow.
# What was measured:
# Test in all cases: glycan array binding signal (z-score within array); higher = stronger binding
# Settings in all cases: glycan notation: IUPAC condensed, linker removed
# [1] = target: Neu5Ac(a2-3)Gal(b1-4)GlcNAc(b1-3)GalNAc
# Summary of the method: (§1)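 From the Consortium for Functional Glycomics database, 3228 arrays were curated, keeping only those whose protein sequence was available. Binding is given as a within-array Z-score averaged across arrays sharing a protein sequence and across linkers. Negative Z-scores can be read as non-binding.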
# [2] = target: Neu5Ac(a2-3)Gal(b1-4)GlcNAc(b1-3)[Neu5Ac(a2-3)Gal(b1-4)GlcNAc(b1-6)]GalNAc
# Summary of the method: as §1
# [3] = target: Neu5Ac(a2-3)Gal(b1-4)GlcNAc(b1-6)GalNAc
# Summary of the method: as §1
# [4] = target: Neu5Ac(a2-3)Gal(b1-4)GlcNAc(b1-6)[Gal(b1-3)]GalNAc
# Summary of the method: as §1
# [5] = target: Neu5Ac(a2-3)Gal(b1-4)GlcNAc(b1-6)[Neu5Ac(a2-3)Gal(b1-3)]GalNAc
# Summary of the method: as §1
# [6] = target: Neu5Ac(a2-3)Gal(b1-4)GlcNAc6S
# Summary of the method: as §1
# [7] = target: Neu5Ac(a2-3)Gal(b1-4)[Fuc(a1-3)]GlcNAc
# Summary of the method: as §1
# [8] = target: Neu5Ac(a2-3)Gal(b1-4)[Fuc(a1-3)]GlcNAc(b1-2)Man
# Summary of the method: as §1
# [9] = target: Neu5Ac(a2-3)Gal(b1-4)[Fuc(a1-3)]GlcNAc(b1-3)Gal
# Summary of the method: as §1
# [10] = target: Neu5Ac(a2-3)Gal(b1-4)[Fuc(a1-3)]GlcNAc(b1-3)Gal(b1-4)GlcNAc
# Summary of the method: as §1
# [11] = target: Neu5Ac(a2-3)Gal(b1-4)[Fuc(a1-3)]GlcNAc(b1-3)Gal(b1-4)[Fuc(a1-3)]GlcNAc(b1-3)Gal(b1-4)[Fuc(a1-3)]GlcNAc
# Summary of the method: as §1
# [12] = target: Neu5Ac(a2-3)Gal(b1-4)[Fuc(a1-3)]GlcNAc(b1-3)GalNAc
# Summary of the method: as §1
# [13] = target: Neu5Ac(a2-3)Gal(b1-4)[Fuc(a1-3)]GlcNAc(b1-6)[Gal(b1-3)]GalNAc
# Summary of the method: as §1
# [14] = target: Neu5Ac(a2-3)Gal(b1-4)[Fuc(a1-3)]GlcNAc(b1-6)[Neu5Ac(a2-3)Gal(b1-3)]GalNAc
# Summary of the method: as §1
# [15] = target: Neu5Ac(a2-3)Gal(b1-4)[Fuc(a1-3)]GlcNAc6S
# Summary of the method: as §1
# [16] = target: Neu5Ac(a2-3)Gal6S(b1-4)GlcNAc
# Summary of the method: as §1
# [17] = target: Neu5Ac(a2-3)Gal6S(b1-4)[Fuc(a1-3)]GlcNAc
# Summary of the method: as §1
# Neu5Ac(a2-3)GalNAc = target: Neu5Ac(a2-3)GalNAc
# Summary of the method: as §1
# [18] = target: Neu5Ac(a2-3)GalNAc(b1-4)GlcNAc
# Summary of the method: as §1
# [19] = target: Neu5Ac(a2-3)[GalNAc(b1-4)]Gal(b1-4)Glc
# Summary of the method: as §1
# [20] = target: Neu5Ac(a2-3)[GalNAc(b1-4)]Gal(b1-4)GlcNAc
# Summary of the method: as §1
# [21] = target: Neu5Ac(a2-3)[GalNAc(b1-4)]Gal(b1-4)GlcNAc(b1-3)GalNAc
# Summary of the method: as §1
# [22] = target: Neu5Ac(a2-3)[Neu5Ac(a2-6)]GalNAc
# Summary of the method: as §1
# Neu5Ac(a2-6)Gal = target: Neu5Ac(a2-6)Gal
# Summary of the method: as §1
# [23] = target: Neu5Ac(a2-6)Gal(b1-3)GlcNAc(b1-3)[Gal(b1-4)GlcNAc(b1-6)]Gal(b1-4)Glc
# Summary of the method: as §1
# Neu5Ac(a2-6)Gal(b1-4)Glc = target: Neu5Ac(a2-6)Gal(b1-4)Glc
# Summary of the method: as §1
# [24] = target: Neu5Ac(a2-6)Gal(b1-4)GlcNAc
# Summary of the method: as §1
# [25] = target: Neu5Ac(a2-6)Gal(b1-4)GlcNAc(b1-2)Man
# Summary of the method: as §1
# [26] = target: Neu5Ac(a2-6)Gal(b1-4)GlcNAc(b1-2)Man(a1-3)Man(b1-4)GlcNAc(b1-4)GlcNAc
# Summary of the method: as §1
# [27] = target: Neu5Ac(a2-6)Gal(b1-4)GlcNAc(b1-2)Man(a1-3)[Gal(b1-4)GlcNAc(b1-2)Man(a1-6)]Man(b1-4)GlcNAc(b1-4)GlcNAc
# Summary of the method: as §1
# [28] = target: Neu5Ac(a2-6)Gal(b1-4)GlcNAc(b1-2)Man(a1-3)[GlcNAc(b1-2)Man(a1-6)]Man(b1-4)GlcNAc(b1-4)GlcNAc
# Summary of the method: as §1
# [29] = target: Neu5Ac(a2-6)Gal(b1-4)GlcNAc(b1-2)Man(a1-3)[GlcNAc(b1-4)][Neu5Ac(a2-6)Gal(b1-4)GlcNAc(b1-2)Man(a1-6)]Man(b1-4)GlcNAc(b1-4)GlcNAc
# Summary of the method: as §1
# [30] = target: Neu5Ac(a2-6)Gal(b1-4)GlcNAc(b1-2)Man(a1-3)[Man(a1-6)]Man(b1-4)GlcNAc(b1-4)GlcNAc
# Summary of the method: as §1
# [31] = target: Neu5Ac(a2-6)Gal(b1-4)GlcNAc(b1-2)Man(a1-3)[Neu5Ac(a2-3)Gal(b1-4)GlcNAc(b1-2)Man(a1-6)]Man(b1-4)GlcNAc(b1-4)GlcNAc
# Summary of the method: as §1
# [32] = target: Neu5Ac(a2-6)Gal(b1-4)GlcNAc(b1-2)Man(a1-3)[Neu5Ac(a2-6)Gal(b1-4)GlcNAc(b1-2)Man(a1-6)]Man(b1-4)GlcNAc(b1-4)GlcNAc
# Summary of the method: as §1
# [33] = target: Neu5Ac(a2-6)Gal(b1-4)GlcNAc(b1-2)Man(a1-3)[Neu5Ac(a2-6)Gal(b1-4)GlcNAc(b1-2)Man(a1-6)]Man(b1-4)GlcNAc(b1-4)[Fuc(a1-6)]GlcNAc
# Summary of the method: as §1
# [34] = target: Neu5Ac(a2-6)Gal(b1-4)GlcNAc(b1-2)Man(a1-6)Man(b1-4)GlcNAc(b1-4)GlcNAc
# Summary of the method: as §1
# [35] = target: Neu5Ac(a2-6)Gal(b1-4)GlcNAc(b1-2)Man(a1-6)[Gal(b1-4)GlcNAc(b1-2)Man(a1-3)]Man(b1-4)GlcNAc(b1-4)GlcNAc
# Summary of the method: as §1
# [36] = target: Neu5Ac(a2-6)Gal(b1-4)GlcNAc(b1-2)Man(a1-6)[GlcNAc(b1-2)Man(a1-3)]Man(b1-4)GlcNAc(b1-4)GlcNAc
# Summary of the method: as §1
# [37] = target: Neu5Ac(a2-6)Gal(b1-4)GlcNAc(b1-2)Man(a1-6)[Man(a1-3)]Man(b1-4)GlcNAc(b1-4)GlcNAc
# Summary of the method: as §1
# [38] = target: Neu5Ac(a2-6)Gal(b1-4)GlcNAc(b1-2)[Neu5Ac(a2-6)Gal(b1-4)GlcNAc(b1-4)]Man(a1-3)[GlcNAc(b1-4)][Neu5Ac(a2-6)Gal(b1-4)GlcNAc(b1-2)[Neu5Ac(a2-6)Gal(b1-4)GlcNAc(b1-6)]Man(a1-6)]Man(b1-4)GlcNAc(b1-4)GlcNAc
# Summary of the method: as §1
# [39] = target: Neu5Ac(a2-6)Gal(b1-4)GlcNAc(b1-2)[Neu5Ac(a2-6)Gal(b1-4)GlcNAc(b1-4)]Man(a1-3)[GlcNAc(b1-4)][Neu5Ac(a2-6)Gal(b1-4)GlcNAc(b1-4)Man(a1-6)]Man(b1-4)GlcNAc(b1-4)GlcNAc
# Summary of the method: as §1
# [40] = target: Neu5Ac(a2-6)Gal(b1-4)GlcNAc(b1-2)[Neu5Ac(a2-6)Gal(b1-4)GlcNAc(b1-6)]Man(a1-6)[Neu5Ac(a2-6)Gal(b1-4)GlcNAc(b1-2)Man(a1-3)][GlcNAc(b1-4)]Man(b1-4)GlcNAc(b1-4)GlcNAc
# Summary of the method: as §1
# [41] = target: Neu5Ac(a2-6)Gal(b1-4)GlcNAc(b1-3)Gal(b1-3)GlcNAc
# Summary of the method: as §1
# [42] = target: Neu5Ac(a2-6)Gal(b1-4)GlcNAc(b1-3)Gal(b1-4)GlcNAc
# Summary of the method: as §1
binder,measurement,setting,value
BIp1-His (Cryptococcus neoformans) (protein) MFTKIFVALFAATAVLSAPVESAEKRITHTGRATFYSPSVGIGACGWQNTDEELVVALNAPQYALNADHNCGQSVRITNEQNGNQEIAKVVDLCPGCNDGDLDMSPALFGALNNNDFDQGVFPISWNFLPRDDTSSSN,glycan array binding signal (z-score),[1],0.56
same,glycan array binding signal (z-score),[2],-0.036
same,glycan array binding signal (z-score),[3],-1.14
same,glycan array binding signal (z-score),[4],0.275
same,glycan array binding signal (z-score),[5],-1.36
same,glycan array binding signal (z-score),[6],-0.016
same,glycan array binding signal (z-score),[7],-0.062
same,glycan array binding signal (z-score),[8],-0.846
same,glycan array binding signal (z-score),[9],-0.507
same,glycan array binding signal (z-score),[10],-0.238
same,glycan array binding signal (z-score),[11],-0.178
same,glycan array binding signal (z-score),[12],1.32
same,glycan array binding signal (z-score),[13],0.648
same,glycan array binding signal (z-score),[14],1.09
same,glycan array binding signal (z-score),[15],-0.83
same,glycan array binding signal (z-score),[16],-0.848
same,glycan array binding signal (z-score),[17],-1.76
same,glycan array binding signal (z-score),Neu5Ac(a2-3)GalNAc,-0.1
same,glycan array binding signal (z-score),[18],-0.356
same,glycan array binding signal (z-score),[19],0.068
same,glycan array binding signal (z-score),[20],-0.125
same,glycan array binding signal (z-score),[21],-0.249
same,glycan array binding signal (z-score),[22],-0.376
same,glycan array binding signal (z-score),Neu5Ac(a2-6)Gal,0.953
same,glycan array binding signal (z-score),[23],0.117
same,glycan array binding signal (z-score),Neu5Ac(a2-6)Gal(b1-4)Glc,0.012
same,glycan array binding signal (z-score),[24],-0.578
same,glycan array binding signal (z-score),[25],-0.47
same,glycan array binding signal (z-score),[26],0.176
same,glycan array binding signal (z-score),[27],-0.893
same,glycan array binding signal (z-score),[28],-0.486
same,glycan array binding signal (z-score),[29],-0.969
same,glycan array binding signal (z-score),[30],1.04
same,glycan array binding signal (z-score),[31],-0.486
same,glycan array binding signal (z-score),[32],-0.281
same,glycan array binding signal (z-score),[33],0.617
same,glycan array binding signal (z-score),[34],0.635
same,glycan array binding signal (z-score),[35],0.877
same,glycan array binding signal (z-score),[36],-0.415
same,glycan array binding signal (z-score),[37],0.266
same,glycan array binding signal (z-score),[38],-0.066
same,glycan array binding signal (z-score),[39],0.171
same,glycan array binding signal (z-score),[40],-0.142
same,glycan array binding signal (z-score),[41],-0.472
same,glycan array binding signal (z-score),[42],-1.05

# Reprinted at random: 3 entries already listed.
binder,measurement,setting,value
BIp1-His (Cryptococcus neoformans) (protein) MFTKIFVALFAATAVLSAPVESAEKRITHTGRATFYSPSVGIGACGWQNTDEELVVALNAPQYALNADHNCGQSVRITNEQNGNQEIAKVVDLCPGCNDGDLDMSPALFGALNNNDFDQGVFPISWNFLPRDDTSSSN,glycan array binding signal (z-score),[4],0.275
same,glycan array binding signal (z-score),[26],0.176
same,glycan array binding signal (z-score),[39],0.171
